Values from PubChem BioAssay AID1159595 (NIAID, 2016).
Screen: 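Which toll-like receptor pathway genes macrophages need for Pam3CSK4-induced Tnf promoter activity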 (primary screen). Cell system: mouse RAW264.7 macrophage reporter cells. Reagents: single siRNA against mouse genes. Duration: assayed 48 to 72 hours after siRNA transfection; ligand applied for 16 hours. Challenge: Pam3CSK4 (TLR2 ligand) for 16 hours before fixation; dose not given. Detection: 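High-content imaging of Tnf promoter-driven nuclear mCherry in cells given Pam3CSK4 for 16 h, 48–72 h after transfection; value is the replicate mean of plate-normalised background-corrected robust z-scores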. Direction: Tnf reporter z-score (replicate mean): higher = stronger Tnf promoter reporter signal than negative control wells. Active means: 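Calls apply to single siRNAs, not genes: activity graded at absolute z of 1, 1.5, 2 and 2.5, and active means averaged z at or beyond ±1.5, i.e. activity score 50 or above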. Calls: active = strong change (up or down); inactive = little change.
Shown is one part, drawn at random, of 756 reagents. 115 of all reagents (15%) were called active. 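Active calls cover both lowered and raised reporter signal; each score refers to one siRNA rather than a whole gene.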 Reagents against one gene are numbered here. The record does not give: the amount of reagent.

Tnf reporter z-score (replicate mean) | Call | Target gene | reagent no.
-0.0766 | inactive | Map3k1 | 1
-2.82 | active | Map3k1 | 2
0.627 | inactive | Map3k1 | 3
0.125 | inactive | Map3k1 | 4
-0.00639 | inactive | Map3k1 | 5
-0.752 | inactive | Map3k1 | 6
-0.993 | inactive | Sigirr | 1
-0.565 | inactive | Sigirr | 2
-0.118 | inactive | Sigirr | 3
0.912 | inactive | Sigirr | 4
-0.133 | inactive | Sigirr | 5
1.22 | inactive | Sigirr | 6
1.39 | inactive | Tnfaip3 | 1
0.2 | inactive | Tnfaip3 | 2
-0.242 | inactive | Tnfaip3 | 3
0.698 | inactive | Tnfaip3 | 4
0.793 | inactive | Tnfaip3 | 5
0.896 | inactive | Tnfaip3 | 6
-0.894 | inactive | Rela | 1
0.275 | inactive | Rela | 2
-1.28 | inactive | Rela | 3
-2.23 | active | Rela | 4
-1.13 | inactive | Rela | 5
-1.42 | inactive | Rela | 6
-0.98 | inactive | Cd180 | 1
0.0994 | inactive | Cd180 | 2
-0.0558 | inactive | Cd180 | 3
-0.74 | inactive | Cd180 | 4
-1.23 | inactive | Cd180 | 5
-0.541 | inactive | Cd180 | 6
1.27 | inactive | Pik3cg | 1
-1.85 | active | Pik3cg | 2
0.601 | inactive | Pik3cg | 3
1.07 | inactive | Pik3cg | 4
-0.973 | inactive | Pik3cg | 5
-2.23 | active | Pik3cg | 6
-1.29 | inactive | Itgam | 1
-0.762 | inactive | Itgam | 2
0.0279 | inactive | Itgam | 3
0.291 | inactive | Itgam | 4
-0.266 | inactive | Itgam | 5
-0.466 | inactive | Itgam | 6
0.217 | inactive | Pik3r5 | 1
-0.00814 | inactive | Pik3r5 | 2
-0.5 | inactive | Pik3r5 | 3
-0.662 | inactive | Pik3r5 | 4
-1.59 | active | Pik3r5 | 5
-0.792 | inactive | Pik3r5 | 6

Entries listed so far whose target name begins with R or r:
Tnf reporter z-score (replicate mean) | Call | Target gene | reagent no.
-0.894 | inactive | Rela | 1
0.275 | inactive | Rela | 2
-1.28 | inactive | Rela | 3
-2.23 | active | Rela | 4
-1.13 | inactive | Rela | 5
-1.42 | inactive | Rela | 6

The list goes on:
Tnf reporter z-score (replicate mean) | Call | Target gene | reagent no.
2.19 | active | Mapk8 | 1
1.09 | inactive | Mapk8 | 2
0.144 | inactive | Mapk8 | 3
-0.616 | inactive | Mapk8 | 4
-1.07 | inactive | Mapk8 | 5
-0.511 | inactive | Mapk8 | 6
-0.421 | inactive | Nfkbia | 1
0.36 | inactive | Nfkbia | 2
1.96 | active | Nfkbia | 3
0.929 | inactive | Nfkbia | 4
1.64 | active | Nfkbia | 5
-1.04 | inactive | Nfkbia | 6
-0.496 | inactive | Egr2 | 1
-1.6 | active | Egr2 | 2
-1.35 | inactive | Egr2 | 3
-3.05 | active | Egr2 | 4
-1.48 | inactive | Egr2 | 5
-0.332 | inactive | Egr2 | 6
-1.97 | active | Cxcl9 | 1
-0.0204 | inactive | Cxcl9 | 2
-0.0939 | inactive | Cxcl9 | 3
-0.977 | inactive | Cxcl9 | 4
0.554 | inactive | Cxcl9 | 5
-0.0244 | inactive | Cxcl9 | 6
-1.15 | inactive | Ticam2 | 1
-1.15 | inactive | Ticam2 | 2
-2.39 | active | Ticam2 | 3
-0.194 | inactive | Ticam2 | 4
-0.655 | inactive | Ticam2 | 5
-2.95 | active | Ticam2 | 6
0.648 | inactive | Mapk11 | 1
-0.295 | inactive | Mapk11 | 2
0.0255 | inactive | Mapk11 | 3
-0.335 | inactive | Mapk11 | 4
-1.18 | inactive | Mapk11 | 5
0.164 | inactive | Mapk11 | 6
-0.697 | inactive | Mapk14 | 1
0.413 | inactive | Mapk14 | 2
-0.14 | inactive | Mapk14 | 3
-0.637 | inactive | Mapk14 | 4
-1.24 | inactive | Mapk14 | 5
-1.18 | inactive | Mapk14 | 6
-1.34 | inactive | Tab3 | 1
-0.576 | inactive | Tab3 | 2
-0.819 | inactive | Tab3 | 3
0.482 | inactive | Tab3 | 4
0.425 | inactive | Tab3 | 5
-0.245 | inactive | Tab3 | 6
-1.95 | active | Cd14 | 1
-1.86 | active | Cd14 | 2
-1.79 | active | Cd14 | 3
-1.21 | inactive | Cd14 | 4
-1.39 | inactive | Cd14 | 5
0.836 | inactive | Cd14 | 6
0.02 | inactive | Map3k8 | 1
0.331 | inactive | Map3k8 | 2
-0.876 | inactive | Map3k8 | 3
0.392 | inactive | Map3k8 | 4
-0.369 | inactive | Map3k8 | 5
-0.366 | inactive | Map3k8 | 6
-0.043 | inactive | Cyld | 1
-0.0645 | inactive | Cyld | 2
-0.0997 | inactive | Cyld | 3
0.158 | inactive | Cyld | 4
2.1 | active | Cyld | 5
0.904 | inactive | Cyld | 6
